Results: paper PMC8934646
Results are given in words; binding and its absence hold for the method and conditions named. In cells and extracts the contact can be indirect. These calls come from enrichment with a bait or labelling near it, and not all partners need be listed. For part of these data: A no says only that the protein was not detected with the bait. For part of these data: Tags and fused reporters may be left off the sequences shown.

T1: TSSC4^V3-Flag, C-terminally 3xFlag-HBH-tagged, stable cell line (human) (UniProt Q9Y5U2)
T1 sequence: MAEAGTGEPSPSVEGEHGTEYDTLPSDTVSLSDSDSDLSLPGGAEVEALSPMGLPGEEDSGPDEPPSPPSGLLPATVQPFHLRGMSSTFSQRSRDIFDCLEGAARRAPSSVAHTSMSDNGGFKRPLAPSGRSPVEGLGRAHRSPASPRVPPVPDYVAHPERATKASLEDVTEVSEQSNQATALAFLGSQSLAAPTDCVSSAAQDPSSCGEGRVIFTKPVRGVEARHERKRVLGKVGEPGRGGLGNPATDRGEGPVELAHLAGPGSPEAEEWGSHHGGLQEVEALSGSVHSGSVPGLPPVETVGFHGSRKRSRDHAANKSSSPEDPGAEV

B1: CD2BP2 (protein, UniProt O95400 1-341)
chain: MPKRKVTFQGVGDEEDEDEIIVPKKKLVDPVAGSGGPGSRFKGKHSLDSDEEEDDDDGGSSKYDILASEDVEGQEAATLPSEGGVRITPFNLQEEMEEGHFDADGNYFLNRDAQIRDSWLDNIDWVKIRERPPGQRQASDSEEEDSLGQTSMSAQALLEGLLELLLPRETVAGALRRLGARGGGKGRKGPGQPSSPQRLDRLSGLADQMVARGNLGVYQETRERLAMRLKGLGCQTLGPHNPTPPPSLDMFAEELAEEELETPTPTQRGEAESRGDGLVDVMWEYKWENTGDAELYGPFTSAQMQTWVSEGYFPDGVYCRKLDPPGGQFYNSKRIDFDLYT
B2: NHP2L1/SNU13 (protein, UniProt P55769 1-128)
chain: MTEADVNPKAYPLADAHLTKKLLDLVQQSCNYKQLRKGANEATKTLNRGISEFIVMAADAEPLEIILHLPLLCEDKNVPYVFVRSKQALGRACGVSRPVIACSVTIKEGSQLKQQIQSIQQSIERLLV
B3: BUD31 (protein, UniProt P41223 1-144)
chain: MPKVKRSRKAPPDGWELIEPTLDELDQKMREAETEPHEGKRKVESLWPIFRIHHQKTRYIFDLFYKRKAISRELYEYCIKEGYADKNLIAKWKKQGYENLCCLRCIQTRDTNFGTNCICRVPKSKLEVGRIIECTHCGCRGCSG
B4: PPIL2 (protein, UniProt Q13356 1-520)
chain: MGKRQHQKDKMYITCAEYTHFYGGKKPDLPQTNFRRLPFDHCSLSLQPFVYPVCTPDGIVFDLLNIVPWLKKYGTNPSNGEKLDGRSLIKLNFSKNSEGKYHCPVLFTVFTNNTHIVAVRTTGNVYAYEAVEQLNIKAKNFRDLLTDEPFSRQDIITLQDPTNLDKFNVSNFYHVKNNMKIIDPDEEKAKQDPSYYLKNTNAETRETLQELYKEFKGDEILAATMKAPEKKKVDKLNAAHYSTGKVSASFTSTAMVPETTHEAAAIDEDVLRYQFVKKKGYVRLHTNKGDLNLELHCDLTPKTCENFIRLCKKHYYDGTIFHRSIRNFVIQGGDPTGTGTGGESYWGKPFKDEFRPNLSHTGRGILSMANSGPNSNRSQFFITFRSCAYLDKKHTIFGRVVGGFDVLTAMENVESDPKTDRPKEEIRIDATTVFVDPYEEADAQIAQERKTQLKVAPETKVKSSQPQAGSQGPQTFRQGVGKYINPAATKRAAEEEPSTSATVPMSKKKPSRGFGDFSSW
B5: DDX35 (protein, UniProt Q9H5Z1 1-703)
chain: MAAPVGPVKFWRPGTEGPGVSISEERQSLAENSGTTVVYNPYAALSIEQQRQKLPVFKLRNHILYLIENYQTVVIVGETGCGKSTQIPQYLAEAGWTAEGRVVGVTQPRRVAAVTVAGRVAEERGAVLGHEVGYCIRFDDCTDQLATRIKFLTDGMLVREMMVDPLLTKYSVIMLDEAHERTLYTDIAIGLLKKIQKKRGDLRLIVASATLDADKFRDFFNQNETSDPARDTCVILTVEGRTFPVDIFYLQSPVPDYIKSTVETVVKIHQTEGDGDVLAFLTGQEEVETVVSMLIEQARALARTGMKRHLRVLPMYAGLPSFEQMKVFERVSRSVRKVIVATNVAETSITISGIVYVIDCGFVKLRAYNPRTAIECLVVVPVSQASANQRAGRGGRSRSGKCYRLYTEEAFDKLPQSTVPEMQRSNLAPVILQLKALGIDNVLRFHFMSPPPAQSMVQALELLYALGGLDKDCRLTEPLGMRIAEFPLNPMFAKMLLESGNFGCSQEILSIAAMMQIQNIFVVPPNQKSHAIRVHRKFAVEEGDHLTMLNIYEAFIKHNKDSKWCQEHFLNYKGLVRAATVREQLKKLLVKFQVPRKSSEGDPDLVLRCIVSGFFANAARFHSTGAYRTIRDDHELHIHPASVLYAEKPPRWVIYNEVIQTSKYYMRDVTAIESAWLLELAPHFYQQGTHLSLKAKRAKVQDP
B6: PRPF28/DDX23, Q9BUQ8 1-820 (enzyme)
chain: MAGELADKKDRDASPSKEERKRSRTPDRERDRDRDRKSSPSKDRKRHRSRDRRRGGSRSRSRSRSKSAERERRHKERERDKERDRNKKDRDRDKDGHRRDKDRKRSSLSPGRGKDFKSRKDRDSKKDEEDEHGDKKPKAQPLSLEELLAKKKAEEEAEAKPKFLSKAEREAEALKRRQQEVEERQRMLEEERKKRKQFQDLGRKMLEDPQERERRERRERMERETNGNEDEEGRQKIREEKDKSKELHAIKERYLGGIKKRRRTRHLNDRKFVFEWDASEDTSIDYNPLYKERHQVQLLGRGFIAGIDLKQQKREQSRFYGDLMEKRRTLEEKEQEEARLRKLRKKEAKQRWDDRHWSQKKLDEMTDRDWRIFREDYSITTKGGKIPNPIRSWKDSSLPPHILEVIDKCGYKEPTPIQRQAIPIGLQNRDIIGVAETGSGKTAAFLIPLLVWITTLPKIDRIEESDQGPYAIILAPTRELAQQIEEETIKFGKPLGIRTVAVIGGISREDQGFRLRMGCEIVIATPGRLIDVLENRYLVLSRCTYVVLDEADRMIDMGFEPDVQKILEHMPVSNQKPDTDEAEDPEKMLANFESGKHKYRQTVMFTATMPPAVERLARSYLRRPAVVYIGSAGKPHERVEQKVFLMSESEKRKKLLAILEQGFDPPIIIFVNQKKGCDVLAKSLEKMGYNACTLHGGKGQEQREFALSNLKAGAKDILVATDVAGRGIDIQDVSMVVNYDMAKNIEDYIHRIGRTGRAGKSGVAITFLTKEDSAVFYELKQAILESPVSSCPPELANHPDAQHKPGTILTKKRREETIFA

Columns and labels:
Experiment in all cases: affinity purification with mass spectrometry; Flag-IP (Flag M2 affinity gel) from 500 μg nuclear extract of Flp-In T-REx 293 cells stably expressing 3xFlag-HBH-tagged TSSC4^wt or TSSC4^V3; 10 mM HEPES-NaOH pH 7.3, 150 mM NaCl, 10 mM MgCl2, 10 mM KCl, 0.5 mM EGTA, benzonase; 3xFlag peptide elution; label-free LC-MS against unmodified cells
[1] = target: T1, TSSC4^V3-Flag, C-terminally 3xFlag-HBH-tagged, stable cell line (human)
[2] = target: TSSC4^wt-Flag, C-terminally 3xFlag-HBH-tagged, stable cell line (human) (UniProt Q9Y5U2)
[3] = target: TSSC4^wt-Flag, C-terminally 3xFlag-HBH-tagged, stable cell line (human), Q9Y5U2; conditions: remark: other sources report otherwise

Row | Binder | binding [1] | binding [2] | binding [3]
1 | B1 | binds | binds | 
2 | B2 | binds | no binding | 
3 | B3 | binds | binds | 
4 | B4 |  | binds | 
5 | B5 |  | binds | 
6 | B6 |  |  | no binding
